Experimental data as given in the supplement of paper PMC10849652.
This is one part of the list.

The chains behind the UniProt entries cited, without tags or fusion partners. Where a name states a change or a piece, a line headed by the entry shows the natural chain unless it says otherwise.
UniProt O43934: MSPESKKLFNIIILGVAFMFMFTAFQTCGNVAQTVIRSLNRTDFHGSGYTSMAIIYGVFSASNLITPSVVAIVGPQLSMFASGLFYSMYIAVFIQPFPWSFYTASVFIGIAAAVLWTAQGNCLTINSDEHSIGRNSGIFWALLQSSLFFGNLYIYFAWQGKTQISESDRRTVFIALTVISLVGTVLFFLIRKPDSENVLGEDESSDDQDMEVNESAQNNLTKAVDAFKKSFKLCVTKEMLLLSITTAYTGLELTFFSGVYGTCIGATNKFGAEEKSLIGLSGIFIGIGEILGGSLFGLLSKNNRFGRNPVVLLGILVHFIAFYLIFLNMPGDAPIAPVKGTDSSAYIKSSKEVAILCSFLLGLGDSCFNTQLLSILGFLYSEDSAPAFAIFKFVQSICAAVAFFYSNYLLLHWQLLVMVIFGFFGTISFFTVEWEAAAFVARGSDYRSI
UniProt Q9UBB5, whole entry, looked up: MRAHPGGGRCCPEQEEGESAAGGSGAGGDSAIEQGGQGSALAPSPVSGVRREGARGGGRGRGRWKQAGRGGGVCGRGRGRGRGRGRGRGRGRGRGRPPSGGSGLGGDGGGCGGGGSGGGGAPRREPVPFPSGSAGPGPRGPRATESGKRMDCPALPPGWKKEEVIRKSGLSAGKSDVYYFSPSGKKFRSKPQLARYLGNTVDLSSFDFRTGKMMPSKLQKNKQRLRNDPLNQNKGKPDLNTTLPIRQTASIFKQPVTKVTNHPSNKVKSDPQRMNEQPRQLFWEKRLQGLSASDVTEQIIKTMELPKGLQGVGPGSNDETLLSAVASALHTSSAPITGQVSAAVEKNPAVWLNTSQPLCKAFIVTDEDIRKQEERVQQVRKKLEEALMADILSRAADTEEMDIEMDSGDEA
UniProt Q08431: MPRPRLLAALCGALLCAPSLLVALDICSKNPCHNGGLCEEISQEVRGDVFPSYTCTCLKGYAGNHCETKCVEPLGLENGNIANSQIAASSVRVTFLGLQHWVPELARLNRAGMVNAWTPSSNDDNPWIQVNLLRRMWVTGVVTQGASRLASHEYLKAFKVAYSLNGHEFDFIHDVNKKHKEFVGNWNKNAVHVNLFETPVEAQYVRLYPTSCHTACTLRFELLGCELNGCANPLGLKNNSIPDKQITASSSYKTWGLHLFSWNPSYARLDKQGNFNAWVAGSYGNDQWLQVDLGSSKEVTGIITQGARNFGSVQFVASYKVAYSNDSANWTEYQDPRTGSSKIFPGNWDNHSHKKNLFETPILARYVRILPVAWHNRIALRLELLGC
UniProt O95568: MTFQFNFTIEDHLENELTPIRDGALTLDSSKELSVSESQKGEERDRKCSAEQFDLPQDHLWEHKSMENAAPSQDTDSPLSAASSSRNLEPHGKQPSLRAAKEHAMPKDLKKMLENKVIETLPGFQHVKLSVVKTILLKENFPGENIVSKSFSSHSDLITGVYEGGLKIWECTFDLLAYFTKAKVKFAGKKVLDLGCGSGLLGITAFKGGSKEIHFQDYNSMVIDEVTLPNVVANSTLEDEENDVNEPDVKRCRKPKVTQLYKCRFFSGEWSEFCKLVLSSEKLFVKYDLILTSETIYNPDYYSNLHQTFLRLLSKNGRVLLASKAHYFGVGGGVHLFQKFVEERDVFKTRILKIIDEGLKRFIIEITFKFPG
UniProt Q07820, whole entry, looked up: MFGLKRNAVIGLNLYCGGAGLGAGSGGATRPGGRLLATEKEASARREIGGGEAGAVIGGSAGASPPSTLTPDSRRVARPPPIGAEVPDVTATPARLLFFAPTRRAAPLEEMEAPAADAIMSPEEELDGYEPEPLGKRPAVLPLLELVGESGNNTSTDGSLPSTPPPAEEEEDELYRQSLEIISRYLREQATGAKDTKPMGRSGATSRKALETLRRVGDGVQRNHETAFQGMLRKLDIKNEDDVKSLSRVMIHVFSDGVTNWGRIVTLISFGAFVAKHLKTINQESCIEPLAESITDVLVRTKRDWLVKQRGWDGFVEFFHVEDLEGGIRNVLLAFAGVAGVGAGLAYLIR
UniProt O95140: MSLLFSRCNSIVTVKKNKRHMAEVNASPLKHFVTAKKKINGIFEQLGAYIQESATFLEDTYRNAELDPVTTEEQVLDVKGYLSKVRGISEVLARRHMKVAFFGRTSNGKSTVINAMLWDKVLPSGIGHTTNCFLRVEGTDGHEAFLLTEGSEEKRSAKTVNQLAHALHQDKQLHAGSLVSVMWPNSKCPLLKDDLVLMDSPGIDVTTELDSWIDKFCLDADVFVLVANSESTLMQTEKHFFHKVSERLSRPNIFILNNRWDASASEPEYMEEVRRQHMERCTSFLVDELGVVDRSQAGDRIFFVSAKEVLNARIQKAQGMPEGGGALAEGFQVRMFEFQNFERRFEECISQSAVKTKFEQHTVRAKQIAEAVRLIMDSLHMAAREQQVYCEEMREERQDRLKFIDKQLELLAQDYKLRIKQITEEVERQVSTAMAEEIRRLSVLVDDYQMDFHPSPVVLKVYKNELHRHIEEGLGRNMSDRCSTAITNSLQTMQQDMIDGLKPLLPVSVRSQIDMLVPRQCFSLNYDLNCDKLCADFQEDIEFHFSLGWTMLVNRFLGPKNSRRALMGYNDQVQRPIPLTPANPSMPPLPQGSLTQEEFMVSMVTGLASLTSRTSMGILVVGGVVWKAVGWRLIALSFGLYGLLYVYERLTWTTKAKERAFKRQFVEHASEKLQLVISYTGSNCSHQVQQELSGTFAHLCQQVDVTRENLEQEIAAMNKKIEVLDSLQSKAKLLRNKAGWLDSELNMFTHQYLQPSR
UniProt Q9GZU1, whole entry, looked up: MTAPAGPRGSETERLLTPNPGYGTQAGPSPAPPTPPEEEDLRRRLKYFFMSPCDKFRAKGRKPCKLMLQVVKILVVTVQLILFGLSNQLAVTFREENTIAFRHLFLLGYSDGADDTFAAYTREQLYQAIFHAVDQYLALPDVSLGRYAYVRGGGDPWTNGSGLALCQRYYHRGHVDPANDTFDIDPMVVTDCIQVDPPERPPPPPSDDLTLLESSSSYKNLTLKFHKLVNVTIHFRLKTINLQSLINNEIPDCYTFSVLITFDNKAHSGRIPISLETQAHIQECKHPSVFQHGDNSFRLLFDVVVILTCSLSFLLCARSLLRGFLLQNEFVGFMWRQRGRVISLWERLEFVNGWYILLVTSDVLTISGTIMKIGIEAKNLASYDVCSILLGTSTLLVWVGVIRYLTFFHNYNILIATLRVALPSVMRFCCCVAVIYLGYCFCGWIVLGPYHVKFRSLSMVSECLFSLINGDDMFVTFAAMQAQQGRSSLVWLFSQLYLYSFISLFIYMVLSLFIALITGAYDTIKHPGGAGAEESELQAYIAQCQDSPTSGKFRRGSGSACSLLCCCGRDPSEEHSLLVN
UniProt Q9H1U4: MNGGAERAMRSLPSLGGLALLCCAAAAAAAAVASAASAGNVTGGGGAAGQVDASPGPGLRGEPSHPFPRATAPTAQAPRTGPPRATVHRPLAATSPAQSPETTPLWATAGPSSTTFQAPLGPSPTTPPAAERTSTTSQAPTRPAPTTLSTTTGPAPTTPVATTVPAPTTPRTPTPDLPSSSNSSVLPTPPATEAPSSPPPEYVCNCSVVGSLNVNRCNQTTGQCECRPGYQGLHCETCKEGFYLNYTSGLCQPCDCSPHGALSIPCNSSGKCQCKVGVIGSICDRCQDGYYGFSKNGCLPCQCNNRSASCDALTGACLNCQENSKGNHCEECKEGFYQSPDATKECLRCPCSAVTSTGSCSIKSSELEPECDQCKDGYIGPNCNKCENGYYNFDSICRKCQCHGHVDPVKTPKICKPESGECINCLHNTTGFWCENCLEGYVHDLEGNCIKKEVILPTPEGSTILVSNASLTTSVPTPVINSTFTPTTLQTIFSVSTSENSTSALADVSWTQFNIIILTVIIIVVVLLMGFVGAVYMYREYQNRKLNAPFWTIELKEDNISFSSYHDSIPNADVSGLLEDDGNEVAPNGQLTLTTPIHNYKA
UniProt P21741: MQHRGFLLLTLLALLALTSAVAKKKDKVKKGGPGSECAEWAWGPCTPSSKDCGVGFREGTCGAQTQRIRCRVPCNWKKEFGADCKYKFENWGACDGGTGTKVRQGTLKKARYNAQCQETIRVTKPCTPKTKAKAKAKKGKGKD
UniProt Q6NUT3: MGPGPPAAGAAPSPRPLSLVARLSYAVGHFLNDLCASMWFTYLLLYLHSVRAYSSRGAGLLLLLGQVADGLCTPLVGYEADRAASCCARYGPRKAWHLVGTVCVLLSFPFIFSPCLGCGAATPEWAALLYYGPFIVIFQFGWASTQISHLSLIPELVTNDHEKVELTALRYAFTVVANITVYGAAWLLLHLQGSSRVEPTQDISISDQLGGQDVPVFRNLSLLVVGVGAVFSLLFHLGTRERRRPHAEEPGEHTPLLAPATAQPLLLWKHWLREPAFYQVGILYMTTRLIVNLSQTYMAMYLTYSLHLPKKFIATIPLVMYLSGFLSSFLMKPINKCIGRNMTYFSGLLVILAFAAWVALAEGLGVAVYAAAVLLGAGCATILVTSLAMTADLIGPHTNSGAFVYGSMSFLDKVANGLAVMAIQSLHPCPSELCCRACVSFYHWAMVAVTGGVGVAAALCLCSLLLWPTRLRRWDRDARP
UniProt Q9NX70: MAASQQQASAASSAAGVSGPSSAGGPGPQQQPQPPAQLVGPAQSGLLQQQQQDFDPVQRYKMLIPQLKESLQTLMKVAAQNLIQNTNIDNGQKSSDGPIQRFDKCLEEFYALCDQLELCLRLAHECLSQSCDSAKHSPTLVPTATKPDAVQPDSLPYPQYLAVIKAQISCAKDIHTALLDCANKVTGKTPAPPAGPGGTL
UniProt Q6ZSS7: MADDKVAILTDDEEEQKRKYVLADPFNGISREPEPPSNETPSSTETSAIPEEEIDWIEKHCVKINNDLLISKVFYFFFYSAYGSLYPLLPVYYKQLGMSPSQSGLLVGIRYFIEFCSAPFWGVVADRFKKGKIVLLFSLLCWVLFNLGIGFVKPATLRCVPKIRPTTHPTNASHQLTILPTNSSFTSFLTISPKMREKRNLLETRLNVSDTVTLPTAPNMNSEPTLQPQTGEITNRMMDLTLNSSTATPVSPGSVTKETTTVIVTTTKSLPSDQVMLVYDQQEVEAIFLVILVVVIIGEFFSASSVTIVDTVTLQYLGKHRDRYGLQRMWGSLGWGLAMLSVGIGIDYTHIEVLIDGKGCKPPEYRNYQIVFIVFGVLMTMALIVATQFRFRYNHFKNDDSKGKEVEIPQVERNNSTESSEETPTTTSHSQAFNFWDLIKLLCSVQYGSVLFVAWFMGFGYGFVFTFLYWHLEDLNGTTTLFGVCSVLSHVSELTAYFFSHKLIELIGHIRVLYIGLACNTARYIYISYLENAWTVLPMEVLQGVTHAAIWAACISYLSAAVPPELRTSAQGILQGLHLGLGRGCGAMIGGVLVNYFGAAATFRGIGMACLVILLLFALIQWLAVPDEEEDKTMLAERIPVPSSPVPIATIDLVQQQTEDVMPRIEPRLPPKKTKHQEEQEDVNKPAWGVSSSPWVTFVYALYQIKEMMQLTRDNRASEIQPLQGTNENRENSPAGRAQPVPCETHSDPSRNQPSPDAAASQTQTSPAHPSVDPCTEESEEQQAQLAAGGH
MCTS2P, A0A3B3IRV3, UniProt A0A3B3IRV3, whole entry, looked up: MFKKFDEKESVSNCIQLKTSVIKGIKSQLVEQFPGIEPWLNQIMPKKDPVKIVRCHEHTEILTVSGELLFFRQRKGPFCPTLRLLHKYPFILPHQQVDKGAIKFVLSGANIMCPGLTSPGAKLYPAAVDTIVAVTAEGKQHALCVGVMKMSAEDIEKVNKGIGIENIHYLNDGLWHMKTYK
UniProt O43462: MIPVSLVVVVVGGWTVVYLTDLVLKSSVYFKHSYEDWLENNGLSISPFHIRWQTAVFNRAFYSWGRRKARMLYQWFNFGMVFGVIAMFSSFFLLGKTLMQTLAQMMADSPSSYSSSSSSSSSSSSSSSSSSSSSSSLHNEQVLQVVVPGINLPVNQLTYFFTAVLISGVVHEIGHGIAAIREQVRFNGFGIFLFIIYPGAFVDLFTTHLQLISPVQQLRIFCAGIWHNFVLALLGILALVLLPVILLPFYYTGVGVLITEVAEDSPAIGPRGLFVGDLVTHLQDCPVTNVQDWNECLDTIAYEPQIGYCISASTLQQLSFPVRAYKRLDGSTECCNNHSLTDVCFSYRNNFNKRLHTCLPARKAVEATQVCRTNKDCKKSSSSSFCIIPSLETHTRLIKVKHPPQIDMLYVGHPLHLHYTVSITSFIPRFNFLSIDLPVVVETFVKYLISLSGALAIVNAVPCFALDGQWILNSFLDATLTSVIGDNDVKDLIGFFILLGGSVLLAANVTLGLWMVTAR
UniProt Q9H1A3: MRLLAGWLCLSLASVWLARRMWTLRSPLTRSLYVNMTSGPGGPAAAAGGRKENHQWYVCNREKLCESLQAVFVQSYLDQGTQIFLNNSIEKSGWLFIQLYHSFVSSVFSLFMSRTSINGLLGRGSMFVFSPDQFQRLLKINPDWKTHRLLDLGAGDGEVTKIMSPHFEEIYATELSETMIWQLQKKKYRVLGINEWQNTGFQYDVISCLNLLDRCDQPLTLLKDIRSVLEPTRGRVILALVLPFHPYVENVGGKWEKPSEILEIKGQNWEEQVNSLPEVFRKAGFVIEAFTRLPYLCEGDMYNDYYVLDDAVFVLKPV

Legend:
Experiment in all cases: log2 fold change, soluble protein after heating vs DMSO (PISA); higher = thermal stabilisation; K562 cells, 10 uM, 30 min; active = over 0.2 and 3.5 SD of the protein, either way, in both replicates (recomputed)
[1] = compound: CS(=O)(=O)c1ccc(-c2cnc(N)c(C(=O)Nc3ccccc3)n2)cc1
In short: (§1)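 K562 cells at 2×10^6 cells/mL were treated for 30 min with 10 μM compound, and aliquots were heated for 3 min over 48°C-58°C before pooling. Extraction used PBS with 0.5% NP-40 at 4°C, and soluble protein was the supernatant after 21,000xg for 90 min, measured by TMTpro 16plex LC-MS/MS with channel sums equalised. Thermal stability values, relative to control samples and from duplicates, are log2 fold changes.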

[2] = compound: C[C@@H](Oc1cc(-c2cnn(C3CCNCC3)c2)cnc1N)c1c(Cl)ccc(F)c1Cl [crizotinib]
In short: as §1

[3] = compound: C[C@@H]1COCCN1C2=NC(=NC(=C2)C3(CC3)S(=O)(=O)C)C4=C5C=CNC5=CC=C4
In short: as §1

[4] = compound: C[C@H](C1=CC=C(C=C1)C(=O)NC2=C3C=CNC3=NC=C2)N
In short: as §1

[5] = compound: Cc1cc(Nc2cc(CN3CCOCC3)c3nc(C)c(Cc4ccc(Cl)cc4F)n3n2)n[nH]1 [gandotinib]
In short: as §1

[6] = compound: Cc1cc(SCc2sc(-c3ccc(C(F)(F)F)cc3)nc2C)ccc1OCC(=O)O
In short: as §1

[7] = compound: Cc1ccc(-n2nc(C(C)(C)C)cc2NC(=O)Nc2ccc(OCCN3CCOCC3)c3ccccc23)cc1 [doramapimod]
In short: as §1

[8] = compound: Cc1ccc(NC(=O)c2ccc(CN3CC[C@H](N(C)C)C3)c(C(F)(F)F)c2)cc1Nc1nccc(-c2cncnc2)n1 [bafetinib]
In short: as §1

[9] = compound: Cc1cccc(CC(=O)N2CCc3c2ccc(-c2cn(C)c4ncnc(N)c24)c3F)n1
In short: as §1

[10] = compound: Cc1cn(-c2cc(NC(=O)c3ccc(C)c(Nc4nccc(-c5cccnc5)n4)c3)cc(C(F)(F)F)c2)cn1 [nilotinib]
In short: as §1

[11] = compound: Cc1nc(Nc2n[nH]c3c2CN(C(=O)N[C@H](CN(C)C)c2ccccc2)C3(C)C)c2sccc2n1
In short: as §1

[12] = compound: Cc1nc(Nc2ncc(C(=O)Nc3c(C)cccc3Cl)s2)cc(N2CCN(CCO)CC2)n1 [dasatinib]
In short: as §1

[13] = compound: Cc1ncc(-c2ccnc(Nc3ccc(S(C)(=O)=O)cc3)n2)n1C(C)C
In short: as §1

[14] = compound: Cn1cc(-c2ccc3c(c2)CCN3C(=O)Cc2cccc(C(F)(F)F)c2)c2c(N)ncnc21
In short: as §1

[15] = compound: Cn1cncc1[C@@](N)(c1ccc(Cl)cc1)c1ccc2c(c1)c(-c1cccc(Cl)c1)cc(=O)n2C [tipifarnib]
In short: as §1

[16] = compound: FC(F)(F)c1ccc(/C=C/c2nc(COc3ccc(CCCCn4ccnn4)cc3)co2)cc1 [mubritinib]
In short: as §1

[17] = compound: C[C@H](Nc1ncnc2nc[nH]c12)c1cc2cccc(Cl)c2c(=O)n1-c1ccccc1 [duvelisib]
In short: as §1

[18] = compound: Cc1cc(Nc2cc(N3CCN(C)CC3)nc(Sc3ccc(NC(=O)C4CC4)cc3)n2)n[nH]1 [tozasertib]
In short: as §1

[19] = compound: Cc1ccc(C(=O)N(CCCN)[C@@H](c2nc3cc(Cl)ccc3c(=O)n2Cc2ccccc2)C(C)C)cc1 [ispinesib]
In short: as §1

[20] = compound: Cn1cc(-c2ccc3nnc(C(F)(F)c4ccc5ncccc5c4)n3n2)cn1
In short: as §1

Measured: log2 fold change

MFSD11 (UniProt O43934)
inactive: [1] -0.098 | [3] -0.223 | [4] 0.074 | [5] 0.036 | [6] -0.063 | [7] 0.008 | [8] -0.047 | [9] -0.032 | [10] -0.038 | [11] 0.046 | [12] -0.004 | [13] -0.119 | [14] 0.17 | [15] -0.047 | [16] 0.063
active: [2] -0.683

MBD2 (UniProt Q9UBB5)
inactive: [1] -0.082 | [3] -0.066 | [4] 0.169 | [17] -0.086 | [5] 0.037 | [18] 0.058 | [6] 0.043 | [19] 0.072 | [8] 0.017 | [9] -0.022 | [10] -0.007 | [11] 0.056 | [12] 0.022 | [13] -0.095 | [14] -0.008 | [20] -0.089 | [15] -0.009 | [16] -0.022

MCM10 (UniProt Q7L590)
inactive: [1] -0.171 | [2] -0.015 | [3] -0.102 | [5] 0.092 | [7] -0.01 | [8] 0.182 | [9] -0.044 | [10] 0.046 | [11] -0.001 | [13] -0.008 | [15] -0.155 | [16] 0.09

MFGE8 (UniProt Q08431)
inactive: [1] 0.063 | [2] 0.04 | [3] -0.129 | [4] 0.087 | [5] -0.015 | [6] 0.057 | [7] 0.046 | [19] -0.122 | [8] 0.024 | [9] 0.002 | [10] 0.168 | [11] 0.008 | [12] 0.049 | [13] -0.039 | [14] -0.057 | [20] -0.029 | [15] 0.033 | [16] -0.096

2 entries drawn at random from the list so far:
MFGE8 (UniProt Q08431)
inactive: [1] 0.063 | [2] 0.04 | [3] -0.129 | [4] 0.087 | [5] -0.015 | [6] 0.057 | [7] 0.046 | [19] -0.122 | [8] 0.024 | [9] 0.002 | [10] 0.168 | [11] 0.008 | [12] 0.049 | [13] -0.039 | [14] -0.057 | [20] -0.029 | [15] 0.033 | [16] -0.096

MCM10 (UniProt Q7L590)
inactive: [1] -0.171 | [2] -0.015 | [3] -0.102 | [5] 0.092 | [7] -0.01 | [8] 0.182 | [9] -0.044 | [10] 0.046 | [11] -0.001 | [13] -0.008 | [15] -0.155 | [16] 0.09

(next part)

METTL1 (UniProt Q9UBP6)
inactive: [1] 0.04 | [3] 0.049 | [4] -0.042 | [17] -0.008 | [5] -0.013 | [18] -0.034 | [6] -0.054 | [7] -0.011 | [19] 0.108 | [8] -0.034 | [9] 0.055 | [10] 0.027 | [11] 0.005 | [12] 0.048 | [13] 0.015 | [14] 0.053 | [20] -0.019 | [15] 0.041 | [16] 0.057

METTL18 (UniProt O95568)
inactive: [1] 0.003 | [2] -0.043 | [3] 0.053 | [4] -0.012 | [5] -0.045 | [6] 0.012 | [7] -0.001 | [19] 0.004 | [8] -0.091 | [9] -0.049 | [10] -0.092 | [11] 0.028 | [12] 0.054 | [13] -0.023 | [14] -0.022 | [20] -0.087 | [15] 0.019 | [16] 0.036

MCL1 (UniProt Q07820)
inactive: [1] -0.079 | [2] 0.043 | [3] -0.158 | [4] -0.006 | [5] 0.042 | [6] 0.01 | [7] 0.109 | [19] -0.441 | [8] -0.181 | [9] -0.017 | [10] 0.015 | [11] -0.053 | [12] 0.068 | [13] -0.079 | [14] -0.021 | [20] -0.158 | [15] 0.109 | [16] 0.001

MFN2 (UniProt O95140)
inactive: [1] 0.028 | [2] -0.109 | [3] 0 | [4] 0.022 | [5] 0.028 | [6] 0.041 | [7] 0.039 | [19] -0.208 | [8] -0.106 | [9] 0.068 | [10] -0.002 | [11] -0.022 | [12] -0.024 | [13] -0.01 | [14] -0.004 | [20] 0.018 | [15] -0.004 | [16] 0.019

MCOLN1 (UniProt Q9GZU1)
inactive: [1] -0.006 | [2] -0.205 | [3] 0.192 | [17] 0.122 | [5] -0.064 | [6] -0.207 | [7] 0.157 | [19] -0.959 | [8] -0.197 | [9] 0.04 | [10] 0.03 | [11] 0.145 | [12] 0.205 | [13] -0.067 | [20] 0.31 | [15] 0.018 | [16] 0.011

MAU2 (UniProt Q9Y6X3)
inactive: [1] -0.243 | [5] -0.016 | [18] 0 | [19] 0.094 | [9] -0.174 | [20] -0.077 | [15] 0.11 | [16] -0.008

MEGF9 (UniProt Q9H1U4)
inactive: [1] 0.035 | [4] 0.225 | [5] 0.042 | [18] -0.059 | [8] -0.136 | [9] -0.101 | [14] -0.345

MDK (UniProt P21741)
inactive: [1] -0.215 | [4] 0.053 | [17] -0.063 | [5] 0.06 | [18] 0.139 | [6] 0.036 | [8] 0.232 | [9] -0.062 | [10] 0.175 | [11] -0.012 | [12] 0.252 | [13] 0.112 | [14] -0.133 | [15] 0.015 | [16] -0.049

METTL26 (UniProt Q96S19)
inactive: [8] 0.101 | [10] -0.103 | [11] 0.034 | [13] 0.07 | [15] -0.06 | [16] 0.155

MFSD12 isoform 3 (UniProt Q6NUT3)
inactive: [1] 0.17 | [4] -0.213 | [5] -0.122 | [6] 0.065 | [9] 0.047 | [12] -0.093 | [14] -0.124

MED29 (UniProt Q9NX70)
inactive: [6] 0.171 | [10] 0.017 | [11] 0.027 | [12] 0.226 | [13] -0.14 | [15] 0.169 | [16] -0.136

MBNL2 (UniProt Q5VZF2)
inactive: [2] 0.098 | [5] 0.118 | [7] 0.117 | [19] 0.089 | [9] -0.061 | [20] -0.059 | [15] 0.012

MFSD6 (UniProt Q6ZSS7)
inactive: [1] -0.017 | [3] -0.184 | [4] 0.056 | [17] -0.017 | [5] -0.055 | [6] -0.187 | [8] -0.074 | [9] -0.067 | [10] -0.004 | [11] -0.049 | [12] -0.052 | [13] -0.074 | [14] 0.052 | [16] -0.165

MAST2 (UniProt Q6P0Q8)
inactive: [19] 0.052 | [20] -0.073

MEX3B (UniProt Q6ZN04)
inactive: [18] -0.109 | [19] -0.43 | [8] -0.057 | [10] -0.042 | [11] 0 | [13] -0.291 | [20] 0.02 | [15] 0.133

MFSD9 (UniProt Q8NBP5)
inactive: [4] 0.054 | [17] 0.032 | [6] -0.029 | [10] -0.215 | [11] -0.009 | [12] 0.012 | [13] 0.032 | [14] 0.054 | [15] -0.037 | [16] -0.099

MCTS2P, A0A3B3IRV3
inactive: [10] -0.149 | [11] -0.024 | [13] 0.024

MBTPS2 (UniProt O43462)
inactive: [2] 0.284 | [3] -0.119 | [4] -0.23 | [17] -0.044 | [5] 0.133 | [18] 0.042 | [6] -0.109 | [7] 0.015 | [19] -0.189 | [9] -0.084 | [10] 0.05 | [11] 0.086 | [12] -0.1 | [13] -0.103 | [14] 0.032 | [20] 0.144 | [15] -0.085

METTL9 (UniProt Q9H1A3)
inactive: [4] -0.123 | [17] -0.184 | [5] 0.017 | [18] -0.019 | [6] -0.109 | [19] -0.12 | [8] -0.137 | [9] 0.032 | [12] -0.239 | [14] -0.18 | [20] -0.083 | [15] 0.057 | [16] 0.172
